Patent US6902726B1, “Reduction of odor gases from waste using plant-derived oils” (The United States of America as represented by the …, priority 2001, dated 2005)
Some of these results come from one statement about several compounds together.

System: stored swine waste
Assay: fermentation of stored swine waste in anoxic flasks (gas, VFA, L-lactate, pH)
Format: cell-based
Settings: carvacrol or thymol at 13.3 or 16.75 mM, or combination to equal 16.75 mM
Method: Swine waste was processed similarly to the method described in Example 1. Fecal waste was randomly collected within 15 min of being excreted from animals fed a finishing diet of 85% corn and 11% soybean meal. Swine urine was collected from catheterized animals. Feces, urine, and distilled water in the ratio 50:35:15 were blended (Waring Inc., New Hartford, Conn.) for 1 min. Four replicate samples were obtained from this slurry and analyzed for various parameters and were considered as time 0. […] Gas volume and composition were analyzed in these flasks (anoxic slurry).
Head space gas was measured by displacement of a water-lubricated glass piston in a 50 ml syringe [Miller, T. L. et al. (1974), Appl Environ 27:985-987]. A 20-gauge needle with a Leurlok was inserted through the stopper, and a three-way valve was attached to the needle to allow gas volume to be periodically determined. Methane and hydrogen were analyzed as previously described [Varel, V. H. et al. (2000), Curr Microbiol 40:392-397].
A 15-ml waste sample was collected from each flask. The sample was mixed with 15 ml of 0.5 M H2SO4, centrifuged at 2000×g for 20 min at 4° C., and stored at −20° C. until analyzed [Varel, V. H. et al. (1999), J Anim Sci 77:1162-1168]. […] Data were analyzed as a split-plot in time with the GLM procedure of (SAS).

`Cc1ccc(C(C)C)c(O)c1` [thymol] gave a butyrate produced of under 8 mM.
